Results from patent US20260035447A1 (SCHOLAR ROCK, published 2026).
These are yes or no findings as the source states them, for the method shown. Some results given as binding are weak or reduced against the parent protein; the word gives no strength.

Key:
[1] = target: T1, pro/latent GDF8 (pro-myostatin and latent myostatin), endogenous, in mouse tibialis anterior muscle (mouse) (UniProt O08689); assay: immunofluorescence on cryosectioned TA muscle from healthy mice
T1 sequence: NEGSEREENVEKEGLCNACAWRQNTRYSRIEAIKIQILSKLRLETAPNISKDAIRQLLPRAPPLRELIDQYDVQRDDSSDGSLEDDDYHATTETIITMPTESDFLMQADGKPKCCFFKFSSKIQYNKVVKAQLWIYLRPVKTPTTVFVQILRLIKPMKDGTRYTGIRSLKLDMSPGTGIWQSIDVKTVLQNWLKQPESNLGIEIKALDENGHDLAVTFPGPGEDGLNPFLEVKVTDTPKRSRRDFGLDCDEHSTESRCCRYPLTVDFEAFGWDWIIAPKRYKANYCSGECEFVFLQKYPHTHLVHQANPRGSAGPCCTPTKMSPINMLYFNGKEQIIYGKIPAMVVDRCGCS

[2] = target: T1, pro/latent GDF8 (pro-myostatin and latent myostatin), endogenous, in mouse tibialis anterior muscle (mouse); assay: immunofluorescence on cryosectioned mouse TA muscle, co-stained with laminin
[3] = target: T1, pro/latent GDF8 (pro-myostatin and latent myostatin), endogenous, in mouse tibialis anterior muscle (mouse); assay: immunofluorescence on mouse TA muscle sections probed with Ab10 and anti-laminin (figure legend)
[4] = target: T1, pro/latent GDF8 (pro-myostatin and latent myostatin), endogenous, in mouse tibialis anterior muscle (mouse); assay: immunofluorescence on cryosections of mouse tibialis anterior muscle, Ab10 at 50 µg/mL, anti-human IgG Alexa Fluor 594 secondary, DAPI counterstain
[5] = target: T1, pro/latent GDF8 (pro-myostatin and latent myostatin), endogenous, in mouse tibialis anterior muscle (mouse); assay: immunofluorescence on cryosections of mouse tibialis anterior muscle, Ab10 at 50 µg/mL pre-incubated overnight in blocking buffer alone, DAPI counterstain
proGDF8 (Mus musculus) = target: T2, proGDF8 (Mus musculus) (UniProt O08689); assay: recombinant protein absorption: Ab10 at 50 µg/mL pre-incubated overnight with 10-fold molar excess of recombinant mouse GDF8, then used as primary antibody for immunofluorescence on mouse tibialis anterior sections; read-out is loss of tissue pro/latent GDF8 staining
T2 sequence (proprotein, looked up): T1 sequence

- binding [1]: binds
- binding [2]: binds
- binding [3]: binds
- binding [4]: binds
- binding [5]: binds
- binding (proGDF8 (Mus musculus)): binds
B1: anti-pro/latent GDF8 antibody, Ab10 (antibody, V domains shown)
VH: EVQLVQSGGGVVQSGRSLRLSCVASGFSFSNYGMHWVRQAPGKGLEWLAFIWYDGSNKWYADSVKGRFTISRDNSKNALYLQMNSLRAEDTAVYYCARDRYSSSWGGGFDYWGQGTVLTVSS
VL: NFMLTQPHSVSESPGRTVTIPCSGRGGSIASDSVQWYQQRPGSAPTTIIYEDNQRPSGVPDRFSGSVDSSSNSASLTISGLRTEDEADYYCQSYDASSLWVFGGKTKLTVLG
notes: The VL as printed runs into the start of the lambda constant region
